Laboratory results reported in patent publication US20180037649A1 (OSAKA UNIVERSITY, published 2018).
These are yes or no findings as the source states them, for the method shown. Binding seen in cells or lysates may run through a third protein. Some entries that bind do so weakly or less than the wild type. For some of these results: Tags and fused reporters may be left off the sequences shown. Blank lines part the entries; values can stand above or below the binder they belong to.

Amino acid sequences for entries named in this document (tags omitted). A change or cut given only in a name is not applied to a line headed by its entry.
UniProt Q07065: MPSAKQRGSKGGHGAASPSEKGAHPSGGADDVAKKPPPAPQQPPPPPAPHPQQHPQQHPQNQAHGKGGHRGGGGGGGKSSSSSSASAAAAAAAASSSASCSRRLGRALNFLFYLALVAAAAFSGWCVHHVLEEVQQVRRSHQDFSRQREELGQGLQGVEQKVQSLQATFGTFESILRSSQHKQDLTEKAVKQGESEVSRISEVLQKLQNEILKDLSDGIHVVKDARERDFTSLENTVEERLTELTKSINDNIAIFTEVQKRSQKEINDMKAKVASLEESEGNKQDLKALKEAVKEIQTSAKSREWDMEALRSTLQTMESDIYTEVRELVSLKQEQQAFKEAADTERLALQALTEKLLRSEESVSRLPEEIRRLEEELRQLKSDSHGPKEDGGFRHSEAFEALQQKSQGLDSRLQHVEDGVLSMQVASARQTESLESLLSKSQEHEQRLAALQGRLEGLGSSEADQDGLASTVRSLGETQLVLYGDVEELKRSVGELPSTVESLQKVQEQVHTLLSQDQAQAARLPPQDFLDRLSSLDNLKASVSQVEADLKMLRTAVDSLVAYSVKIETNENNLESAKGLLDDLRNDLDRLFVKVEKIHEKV

How the values were obtained:
[1] = biological target: GST-CKAP4-ECD (human) (UniProt Q07065); assay: pull-down: 0.5 nM GST-CKAP4-ECD with 0 to 16 nM Dkk1, immunoblot with anti-Dkk1 antibody
[2] = biological target: LRP6 of MDCK cells (endogenous) (canine); assay: co-IP with anti-FLAG antibody from MDCK cell lysate, immunoblot
[3] = biological target: CKAP4 of MDCK cells (endogenous) (canine); assay: as above
[4] = biological target: CKAP4 of MDCK cells (endogenous) (canine); assay: co-IP with anti-FLAG antibody from MDCK/Dkk1-FLAG cell lysate, immunoblot
[5] = biological target: LRP6 of MDCK cells (endogenous) (canine); assay: co-IP with anti-FLAG antibody from MDCK/Dkk1-FLAG cell lysate, immunoblot (positive control)
[6] = biological target: CKAP4 of MDCK cells (endogenous) (canine); assay: co-IP with anti-FLAG antibody from MDCK/Dkk1-FLAG-GPI cell lysate, immunoblot
[7] = biological target: LRP6 of MDCK cells (endogenous) (canine); assay: co-IP with anti-FLAG antibody from MDCK/Dkk1-FLAG-GPI cell lysate, immunoblot (positive control)

binding [1]: binds
B1: Dkk1 (R&D Systems) (ligand, UniProt O94907 32-266, looked up)
chain: TLNSVLNSNAIKNLPPPLGGAAGHPGSAVSAAPGILYPGGNKYQTIDNYQPYPCAEDEECGTDEYCASPTRGGDAGVQICLACRKRRKRCMRHAMCCPGNYCKNGICVSSDQNHFRGEIEETITESFGNDHSTLDGYSRRTTLSSKMYHTKGQEGSVCLRSSDCASGLCCARHFWSKICKPVLKEGQVCTKHRRKGSHGLEIFQRCYCGEGLSCRIQKDHHQASNSSRLHTCQRH

binding [2]: binds
binding [3]: binds
binding [4]: binds
binding [5]: binds
B2: Dkk1-FLAG (wild-type human Dkk1 tagged with FLAG at the C-terminal) (ligand, UniProt O94907 32-266, looked up)
chain: B1 chain
notes: Expressed in MDCK or X293T cells; pulled down from cell lysates with an anti-FLAG antibody; also called WT-FLAG; wild-type Dkk1-FLAG (WT); not shown: FLAG tag at the C-terminal

binding [6]: binds
binding [7]: binds
B3: Dkk1-FLAG-GPI (ligand, human, UniProt O94907 32-266, looked up, not shown: small tags and cut ends; large carriers)
chain: B1 chain
modifications: glycosylphosphatidylinositol (GPI) anchor at the C-terminal side
